PubChem BioAssay AID743456 | Peter MacCallum Cancer Centre, 2014
The deposit covers 878 reagents; this is an unselected part. In the full data, 27 (3.1%) are marked active. 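27 mimics are marked active, unlike an earlier stated count of 24; the viability threshold is described inconsistently.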 Not all columns of the deposit are shown. Not given: the amount of reagent.

Screen: 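Mimic library tested for viability and apoptosis changes under vorinostat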 (primary screen)
Cell system: human HCT116-VR colon cancer cells, a vorinostat-resistant HCT116 line
Reagent: miRNA mimic
Timing: about 3 days from transfection to readout; drug present for the last 24 h
Conditions: vorinostat at 2.5 µM final for 24 h
Detection: 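Cell viability from CellTiter-Fluor signal and caspase activity from luminescence after 24 h vorinostat at 2.5 µM, given as robust z-scores and as ratios to mock-transfected wells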
Reading the numbers: viability robust z-score: higher = more viable cells; caspase robust z-score: higher = more caspase activity, more apoptosis
Hit rule: 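Active when viability drops or caspase activity climbs beyond robust z thresholds, with wells of poor cell health excluded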

| miRNA | viability robust z-score | caspase robust z-score | viability hit class | caspase hit class | Call |
| --- | --- | --- | --- | --- | --- |
| hsa-miR-769-3p | -0.3 | -0.78 | no change | no change | inactive |
| hsa-miR-29c* | 0.2 | 0.84 | no change | no change | inactive |
| hsa-miR-659 | 0.08 | 0 | no change | no change | inactive |
| hsa-miR-582-3p | 0.34 | 1.44 | no change | no change | inactive |
| hsa-miR-758 | -0.38 | -0.77 | no change | no change | inactive |
| hsa-miR-1278 | -0.96 | 4.14 | no change | no change | inactive |
| hsa-miR-342-3p | 0.62 | -0.79 | no change | no change | inactive |
| hsa-miR-1273 | -0.68 | -0.46 | no change | no change | inactive |
| hsa-miR-1255b | -0.84 | 4.21 | no change | no change | inactive |
| hsa-miR-1299 | -0.55 | 3.5 | no change | no change | inactive |
| hsa-miR-876-5p | -0.32 | -0.15 | no change | no change | inactive |
| hsa-miR-125a-5p | 1.6 | -0.99 | no change | no change | inactive |
| hsa-miR-208a | 0.38 | 1.68 | no change | no change | inactive |
| hsa-miR-221* | -1.81 | 0.8 | no change | no change | inactive |
| hsa-miR-144 | 0.54 | -0.72 | no change | no change | inactive |
| hsa-miR-513a-3p | -0.36 | -0.66 | no change | no change | inactive |
| hsa-miR-616 | -0.94 | 0.24 | no change | no change | inactive |
| hsa-miR-146b-3p | -0.03 | 0.95 | no change | no change | inactive |
| hsa-miR-32 | 0.7 | -0.62 | no change | no change | inactive |
| hsa-miR-202* | 1.36 | -0.3 | no change | no change | inactive |
| hsa-miR-614 | 0.57 | -0.74 | no change | no change | inactive |
| hsa-miR-19b | 0.16 | 2 | no change | no change | inactive |
| hsa-miR-25 | 0.2 | -0.7 | no change | no change | inactive |
| hsa-miR-125a-3p | 0.81 | 4.32 | no change | no change | inactive |
| hsa-miR-1279 | 0.55 | -0.54 | no change | no change | inactive |
| hsa-miR-489 | -2.1 | 2.38 | no change | no change | inactive |
| hsa-let-7a* | 0.8 | 0.01 | no change | no change | inactive |
| hsa-miR-431* | 0.02 | 1.5 | no change | no change | inactive |
| hsa-miR-877 | -0.32 | -0.04 | no change | no change | inactive |
| hsa-miR-520b | -0.18 | 1.94 | no change | no change | inactive |
| hsa-miR-1229 | 0.47 | -0.32 | no change | no change | inactive |
| hsa-miR-211 | -0.76 | -0.86 | no change | no change | inactive |
| hsa-miR-630 | -2.06 | 3.3 | no change | no change | inactive |
| hsa-miR-140-5p | 0.37 | -0.98 | no change | no change | inactive |
| hsa-miR-18b | 0.16 | 2.49 | no change | no change | inactive |
| hsa-miR-509-3-5p | -0.23 | 5.75 | no change | caspase activation | active |
| hsa-miR-1238 | -2.83 | 2.39 | no change | no change | inactive |
| hsa-miR-671-5p | -0.5 | 0 | no change | no change | inactive |
| hsa-miR-224 | 0.06 | 0.12 | no change | no change | inactive |
| hsa-miR-136* | -0.26 | 0.73 | no change | no change | inactive |
| hsa-miR-433 | -0.42 | 0.66 | no change | no change | inactive |
| hsa-miR-220b | 0.51 | -0.87 | no change | no change | inactive |
| hsa-miR-30c-2* | -0.94 | 0.66 | no change | no change | inactive |
| hsa-miR-589 | 0.78 | -0.67 | no change | no change | inactive |
| hsa-miR-1200 | -0.03 | -1.09 | no change | no change | inactive |
| hsa-miR-181d | -0.96 | 1.32 | no change | no change | inactive |
| hsa-miR-922 | 0.02 | 1.4 | no change | no change | inactive |
| hsa-miR-15b | -1.71 | 2.16 | no change | no change | inactive |
| hsa-miR-486-3p | -1.58 | 5.21 | no change | caspase activation | active |
| hsa-miR-96* | -0.45 | 0.22 | no change | no change | inactive |
| hsa-miR-551b* | 0.86 | -0.45 | no change | no change | inactive |
| hsa-let-7i* | 0.04 | 0.5 | no change | no change | inactive |
| hsa-miR-519d | 1.33 | 0.41 | no change | no change | inactive |
| hsa-miR-1265 | -0.15 | 1.44 | no change | no change | inactive |
| hsa-miR-93* | -2.24 | 3.96 | no change | no change | inactive |
| hsa-miR-572 | 1.25 | -0.29 | no change | no change | inactive |
| hsa-miR-124 | -0.59 | 0.03 | no change | no change | inactive |
| hsa-miR-889 | 0.12 | -0.72 | no change | no change | inactive |
| hsa-miR-219-5p | 1.5 | -0.52 | no change | no change | inactive |
| hsa-miR-182 | -0.12 | 0.12 | no change | no change | inactive |
| hsa-miR-29a* | 1.63 | -0.72 | no change | no change | inactive |
| hsa-miR-19b-1* | -3.25 | 0.68 | reduced viability | no change | active |
| hsa-miR-181c* | -1.21 | -0.64 | no change | no change | inactive |

Reformatted: results already given
hsa-miR-144
- viability robust z-score: 0.54
- caspase robust z-score: -0.72
- viability hit class: no change
- caspase hit class: no change
- Call: inactive

hsa-miR-513a-3p
- viability robust z-score: -0.36
- caspase robust z-score: -0.66
- viability hit class: no change
- caspase hit class: no change
- Call: inactive

hsa-miR-616
- viability robust z-score: -0.94
- caspase robust z-score: 0.24
- viability hit class: no change
- caspase hit class: no change
- Call: inactive

hsa-miR-146b-3p
- viability robust z-score: -0.03
- caspase robust z-score: 0.95
- viability hit class: no change
- caspase hit class: no change
- Call: inactive

hsa-miR-32
- viability robust z-score: 0.7
- caspase robust z-score: -0.62
- viability hit class: no change
- caspase hit class: no change
- Call: inactive

hsa-miR-202*
- viability robust z-score: 1.36
- caspase robust z-score: -0.3
- viability hit class: no change
- caspase hit class: no change
- Call: inactive

hsa-miR-614
- viability robust z-score: 0.57
- caspase robust z-score: -0.74
- viability hit class: no change
- caspase hit class: no change
- Call: inactive

hsa-miR-19b
- viability robust z-score: 0.16
- caspase robust z-score: 2
- viability hit class: no change
- caspase hit class: no change
- Call: inactive
